# Test results published in publication PMC10177021.
# Protein sequences, listed by entry. Tags and fused reporters are not part of them. Lines headed by an entry give the natural chain unless they say otherwise; changes in a name come on top. Residues count along the entry.
# UniProt P97772, residues 21-1199: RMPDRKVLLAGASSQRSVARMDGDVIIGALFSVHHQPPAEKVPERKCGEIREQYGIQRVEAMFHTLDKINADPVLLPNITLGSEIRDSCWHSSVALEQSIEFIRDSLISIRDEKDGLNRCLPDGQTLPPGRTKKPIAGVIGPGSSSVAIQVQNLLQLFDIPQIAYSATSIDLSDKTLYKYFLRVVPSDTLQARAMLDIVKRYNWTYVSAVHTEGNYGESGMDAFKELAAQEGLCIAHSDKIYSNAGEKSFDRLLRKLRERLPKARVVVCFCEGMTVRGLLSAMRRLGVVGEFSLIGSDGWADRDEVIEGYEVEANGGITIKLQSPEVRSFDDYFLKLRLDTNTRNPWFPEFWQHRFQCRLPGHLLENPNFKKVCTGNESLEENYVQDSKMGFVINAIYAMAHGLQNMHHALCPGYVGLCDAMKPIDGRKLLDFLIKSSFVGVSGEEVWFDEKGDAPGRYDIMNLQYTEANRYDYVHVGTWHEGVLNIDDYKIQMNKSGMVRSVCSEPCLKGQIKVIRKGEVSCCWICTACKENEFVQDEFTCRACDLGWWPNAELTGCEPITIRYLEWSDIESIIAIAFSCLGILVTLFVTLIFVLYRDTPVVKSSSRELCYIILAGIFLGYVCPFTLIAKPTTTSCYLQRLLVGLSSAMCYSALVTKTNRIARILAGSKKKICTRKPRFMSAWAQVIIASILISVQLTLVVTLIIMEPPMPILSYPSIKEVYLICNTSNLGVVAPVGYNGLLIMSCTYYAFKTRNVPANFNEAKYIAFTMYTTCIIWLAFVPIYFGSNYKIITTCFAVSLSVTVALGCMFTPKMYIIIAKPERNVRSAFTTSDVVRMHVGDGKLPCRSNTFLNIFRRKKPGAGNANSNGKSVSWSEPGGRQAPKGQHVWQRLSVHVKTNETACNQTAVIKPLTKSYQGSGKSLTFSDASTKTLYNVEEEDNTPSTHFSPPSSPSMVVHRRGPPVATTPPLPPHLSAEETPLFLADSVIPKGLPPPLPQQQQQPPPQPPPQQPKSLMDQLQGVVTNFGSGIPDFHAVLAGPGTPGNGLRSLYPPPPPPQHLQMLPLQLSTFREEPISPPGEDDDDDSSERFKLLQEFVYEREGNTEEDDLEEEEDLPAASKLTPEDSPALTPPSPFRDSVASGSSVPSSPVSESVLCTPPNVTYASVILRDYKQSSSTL
# These are yes or no findings as the source states them, for the method shown. Binding seen in cells or lysates may run through a third protein. A yes stands for co-enrichment or nearness to the bait. Other partners may have been found.
# B1: phospholipase Cβ4 (enzyme, UniProt Q91UZ1 1-1175)
# chain: MAKPYEFNWQKEVPSFLQEGAVFDRYEEESFVFEPNCLFKVDEFGFFLTWKSEGKEGQVLECSLINSIRQAAIPKDPKILAALEAVGKSENDLEGRILCVCSGTDLVNIGFTYMVAENPEVTKQWVEGLRSIIHNFRANNVSPMTCLKKHWMKLAFLTNTTGKIPVRSITRTFASGKTEKVIFQALKELGLPSGKNDEIEPAAFTYEKFYELTQKICPRTDIEDLFKKINGDKTDYLTVDQLVSFLNEHQRDPRLNEILFPFYDAKRAMQIIEMYEPDEELKKKGLISSDGFCRYLMSDENAPVFLDRLELYQEMDHPLAHYFISSSHNTYLTGRQFGGKSSVEMYRQVLLAGCRCVELDCWDGKGEDQEPIITHGKAMCTDILFKDVIQAIKETAFVTSEYPVILSFENHCSKYQQYKMSKYCEDLFGDLLLKQALESHPLEPGRPLPSPNDLKRKILIKNKRLKPEVEKKQLEALKSMMEAGESAAPASILEDDNEEEIESADQEEEAHPEYKFGNELSADDYSHKEAVANSVKKGLVTVEDEQAWMASYKYVGATTNIHPYLSTMINYAQPVKFQGFHVAEERNIHYNMSSFNESVGLGYLKTHAIEFVNYNKRQMSRIYPKGGRVDSSNYMPQIFWNAGCQMVSLNYQTPDLAMQLNQGKFEYNGSCGYLLKPDFMRRPDRTFDPFSETPVDGVIAATCSVQVISGQFLSDKKIGTYVEVDMYGLPTDTIRKEFRTRMVMNNGLNPVYNEESFVFRKVILPDLAVLRIAVYDDNNKLIGQRILPLDGLQAGYRHISLRNEGNKPLSLPTIFCNIVLKTYVPDGFGDIVDALSDPKKFLSITEKRADQMRAMGIETSDIADVPSDTSKNDKKGKANPAKANVTPQSSSELRPTTTAALGSGQEAKKGIELIPQVRIEDLKQMKAYLKHLKKQQKELNSLKKKHAKEHSTMQKLHCTQVDKIVAQYDKEKSTHEKILEKAMKKKGGSNCLEIKKETEIKIQTLTTDHKSKVKEIVAQHTKEWSEMINTHSAEEQEIRDLHLSQQCELLRKLLINAHEQQTQQLKLSHDRESKEMRAHQAKISMENSKAISQDKSIKNKAERERRVRELNSSNTKKFLEERKRLAMKQSKEMDQLKKVQLEHLEFLEKQNEQAKEMQQMVKLEAEMDRRPATVV
# B2: ρ guanine nucleotide exchange factor 33 (protein, UniProt Q8BW86-1 1-850)
# chain: MEKSKAKQGENEHMPVNNPSTQIYQLQALASELKTGFTEAMQELTRIQHGEYALEEKVKSCRCSMEEKVTEMKNSLNYFKEELSNAMSMIQAITSKQEEMQQKIEQLQQEKRRESRKVKAKKAQKEEHGAQAGPASAPAPGSAPTQGSPFRSINVPEAGLPSDDFTNMLPSQNYEKAQESRSVHVGDSNVKGMMGPGVNPTTPESDENLKPSLSAEIQSKGHHTPGLWRQPKEGKEWGEEYVTKDHPDKLKDAGQGRHSSLENVLCETSLAAKRQTVALELLESERKYVINISLILKIKATFQGSDGKRNPKERSLFPGSLRYLVQQHLDLLHALQERVLKWPRQGVLGDLFLKLTNDENNFLDYYVAYLRDLPECISLVHVVVLKEGDEEIKSDIYTLFFHIVQRIPEYLIHLQNVLKFTEQEHPDYYLLLVCVQRLRVFISHYTLLFQCNEDLLIQKRKKLKKSSMAKLYKGLASQCANAGQDASPNAGQEAVHDSGVHSEEMLQPYPSSSSSAPAVSHLMAPAKKGQQQQSLMESMQPGKPGDWELEGRKHERPESLLAPAQFCAAEQDVKALAGPLQAIPEMDFEPSSAEPLGNVERSLRGPPELLPDARGFVPAGYEEFEYGGEIFALPAPYDEEPFQAPALFDNCSPASSESSLDICFLRPVSFAMEAERPEHALQPLPKSATSPASSSGAYKLEAAQAQAHGKAKPLSRSLKEFPRTPPAEGVAPRLYSTRSSSGGRAPLKVERAPAPHGPAAAAAASRGAPRTFFPQQRSQSEKQTYLEEMHLEDATRFCPKEERESEQTSFSDQNPRQDQKGGFRSSFRKLFKKKNGNSTGEDFCGPWGWW
# Target: metabotropic glutamate receptor 1, mGlu1α variant (mouse (endogenous in cerebellum)) (UniProt P97772)
# Assay: affinity purification with mass spectrometry; mGlu1α immunoprecipitated with Af811-1 (three replicates) or Af660-1 (three replicates) and Dynabeads Protein-A from detergent lysates (0.5% deoxycholate, 1% NP-40, 0.1% SDS) of the mouse cerebellar P2 fraction; LC-MS/MS of eluates; proteins also found from Grm1-KO lysates removed
row,Binder,binding
1,B1,binds
2,B2,binds
